For at least one entry, the source does not settle the construct or the ends of the probe. At least one result comes from cells or an extract, where the contact may be indirect.
Molecular target: Vimentin (VIM, cell surface) (Homo sapiens) (UniProt P08670)
Assay: pull-down
Conditions: PS (monothiophosphate at dA, from dATP(alphaS)); formaldehyde-crosslinked pulldown and MS from hyperphosphorylated SH-SY5Y, PBS 4 C; VIM described as likely target; co-staining with cell-surface VIM antibody; protein on the cell surface; protein details: endogenous on hyperphosphorylated SH-SY5Y cells; label: biotin (pulldown), Cy5 (staining); single-stranded DNA

Chains of the proteins cited; added tags and fusions are not shown. Residues count along the entry.
UniProt P08670, 2-466: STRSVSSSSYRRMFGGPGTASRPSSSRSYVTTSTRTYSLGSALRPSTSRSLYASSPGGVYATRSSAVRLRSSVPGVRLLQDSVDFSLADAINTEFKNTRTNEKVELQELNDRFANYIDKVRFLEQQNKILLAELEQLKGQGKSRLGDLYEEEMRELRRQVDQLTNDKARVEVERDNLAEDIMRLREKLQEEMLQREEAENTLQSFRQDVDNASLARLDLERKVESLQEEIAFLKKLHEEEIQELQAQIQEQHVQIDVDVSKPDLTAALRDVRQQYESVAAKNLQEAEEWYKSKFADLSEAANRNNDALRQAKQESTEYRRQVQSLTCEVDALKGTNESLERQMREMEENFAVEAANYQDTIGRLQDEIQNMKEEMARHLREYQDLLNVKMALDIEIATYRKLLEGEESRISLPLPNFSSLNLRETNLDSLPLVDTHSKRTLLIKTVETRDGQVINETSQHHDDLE

CCCCCCACGGTCTCCGCTCCACAAGTTCAC [Tau_1 (DONGYBM)]
binding result: binds

— US20220283187
